Experimental data: publication PMC11598452

Target: T1, C1INH (human (endogenous in normal human serum)) (UniProt P05155)
T1 sequence: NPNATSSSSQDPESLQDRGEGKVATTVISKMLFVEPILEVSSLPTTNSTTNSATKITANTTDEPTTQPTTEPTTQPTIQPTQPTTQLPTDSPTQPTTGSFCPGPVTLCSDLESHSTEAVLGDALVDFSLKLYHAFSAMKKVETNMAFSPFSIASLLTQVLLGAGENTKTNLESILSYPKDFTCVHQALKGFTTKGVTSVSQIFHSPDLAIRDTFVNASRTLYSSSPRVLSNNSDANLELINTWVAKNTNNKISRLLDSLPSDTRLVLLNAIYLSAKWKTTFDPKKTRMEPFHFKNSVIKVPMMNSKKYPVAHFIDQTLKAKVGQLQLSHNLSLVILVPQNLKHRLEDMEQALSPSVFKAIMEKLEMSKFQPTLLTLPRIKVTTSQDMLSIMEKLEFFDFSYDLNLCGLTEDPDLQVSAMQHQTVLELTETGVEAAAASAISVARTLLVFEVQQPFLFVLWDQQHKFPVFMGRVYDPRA
Assay: ELISA; MASP-1/C1-INH ELISA kit (HycultBiotech) detecting the complex in normal human serum exposed to vehicle or AmV (10-1000 µg/mL, 30-120 min, 37°C), reactions stopped with 20 mM EDTA, serum diluted 1/100

Substance: MBL-associated serine protease 1 (MASP1) (human (endogenous in normal human serum)) (enzyme)
- binding: binds

These are yes or no findings as the source states them, for the method shown. Binding can be weak; no strength is given.
